Hit rate of the full screen: of about 330,000 compounds, about 7,700 (2.3%) were called active. This list was built around the results that the source calls inconclusive (neither active nor inactive); the mix of calls is not that of the screen. The call rests on the fitted dose curve; in most records, active means well fitted inhibition curve with a large enough effect; inconclusive means small, poorly fitted or top-dose-only effect, or effect the other way; inactive means flat fitted curve, though single readings scatter. Where the call is inconclusive, the potency comes from a doubtful curve fit.
Experiment: qHTS screen for small molecules that inhibit ELG1-dependent DNA repair in human embryonic kidney (HEK293T) cells expressing luciferase-tagged ELG1; further: nearly all actives have a fitted effect of over 55% in size
Conditions: HEK293T ELG1-luciferase reporter, luminescence, 16 h, DNA damage induced by 5-fluorouridine; activity change, negative = inhibition: at 46.1 µM (top of the series)
Summary of the method: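 Cells (2,000 per well) received 5-fluorouridine plus test compound or DMSO and were incubated 16 hr at 37 °C, 5% CO2. Luciferase activity was read by luminescence 30 min after ONE-Glo addition; signal suppression marked inhibition of damage-induced ELG1 function.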
On the % scale 0 is the no-effect control and ±100 the full control effect; potency means the concentration at half of the fitted maximal effect.

| SMILES | activity change, negative = inhibition | Potency |
| --- | --- | --- |
| CCC(=NCCN1CCOCC1)c1c(O)n(-c2ccccc2C)c(=O)[nH]c1=O | inactive: -1.67% |  |
| CCOC(=O)[C@@H]1[C@H]2COc3ccc(Br)cc3[C@H]2N2C(=O)N(c3cccc(C)c3)C(=O)[C@]12C | inactive: 2.19% |  |
| COC(=O)C1=C(c2ccc(F)cc2F)C[C@@H]2CC[C@H]1N2C(=O)NCc1ccco1 |  | inconclusive: 5.8 µM [activator, full curve, poor fit] |
| CCOc1cc2c(cc1OCC)-n1cccc1C(c1ccc(F)cc1)NC2 (centres undefined) |  | inconclusive: 29.1 µM [inhibitor, single point] |
| Cc1ccc(C(=O)n2cc(CCN3CCS(=O)(=O)CC3)c3ccccc32)cc1 |  | inconclusive: 29.1 µM [inhibitor, single point] |
| CN1C(=O)C(=Cc2coc3ccccc3c2=O)C(=O)N(C)C1=O | inactive: 10.3% |  |
| Cc1nc2cc(-c3ccccc3)nn2c(C)c1CCC(=O)N1CCC2(CC1)OCCO2 |  | inconclusive: 16.4 µM [activator, single point] |
| O=C(c1cccnc1)c1cc2ccccc2[nH]1 |  | inconclusive: 18.4 µM [activator, partial curve, poor fit] |
| Cc1ccc(N2C(=O)NC(=O)/C(=C\c3cccn3C(C)(C)C)C2=O)cc1 | inactive: 8.64% |  |
| Cc1nc(-c2nc(-c3c(C(=O)NNC(=O)c4ccc(Cl)cc4)noc3C)cs2)cs1 |  | inconclusive: 23.1 µM [inhibitor, partial curve, poor fit] |
| CN1CCc2c(C#N)c(Cl)nc(Cl)c2C1 |  | inconclusive: 16.4 µM [activator, partial curve, poor fit] |
| CCC(=O)c1ccc(OCC(=O)N2CCN(CC(=O)Nc3ccc(C)cc3)CC2)cc1 | inactive: 1.39% |  |
| COc1ccc2[nH]c(C)c(CCNCc3cc(OC)c4c(c3)OCO4)c2c1 |  | inconclusive: 32.6 µM [inhibitor, single point] |
| CC(=O)C1=NOC(CNc2ncc(C(F)(F)F)cc2Cl)C1 (centres undefined) |  | inconclusive: 23.1 µM [activator, partial curve] |
| COC(=O)c1c(C)n(Cc2ccc3c(c2)OCO3)c2ccc(O)cc12 |  | inconclusive: 25.9 µM [inhibitor, single point] |
| C#CCNc1ccncc1S(=O)(=O)NC(=O)NC(C)C | inactive: 0.305% |  |
| CCN1CCN(C(=O)Cc2ccc(C)cc2)CC1 |  | inconclusive: 16.4 µM [activator, single point] |
| CCCCC(=O)N/N=C/c1c(O)n(CCC2=CCCCC2)c(=O)[nH]c1=O |  | inconclusive: 10.3 µM [inhibitor, partial curve] |
| Cc1ccc2c(c1)CC1(CN2C)C(=O)NC(=O)N(C(C)C)C1=O (centres undefined) | inactive: 0.308% |  |
| Cc1c(CCN)ccc2c1[nH]c1ccccc12 |  | inconclusive: 29.1 µM [inhibitor, partial curve, poor fit] |
| CCCCn1cnc2cc(NCc3cccc(OC)c3O)ccc21 |  | inconclusive: 29.1 µM [activator, single point] |
| c1ccc(-c2ccncc2)cc1 | inactive: 9.73% |  |

Of the compounds above, these have fluorine.

| SMILES | activity change, negative = inhibition | Potency |
| --- | --- | --- |
| COC(=O)C1=C(c2ccc(F)cc2F)C[C@@H]2CC[C@H]1N2C(=O)NCc1ccco1 |  | inconclusive: 5.8 µM [activator, full curve, poor fit] |
| CCOc1cc2c(cc1OCC)-n1cccc1C(c1ccc(F)cc1)NC2 (centres undefined) |  | inconclusive: 29.1 µM [inhibitor, single point] |
| CC(=O)C1=NOC(CNc2ncc(C(F)(F)F)cc2Cl)C1 (centres undefined) |  | inconclusive: 23.1 µM [activator, partial curve] |

The list goes on:

| SMILES | activity change, negative = inhibition | Potency |
| --- | --- | --- |
| CCOC(=O)c1ccc(-[n+]2c(-c3ccccc3)cc(-c3ccccc3)cc2-c2ccccc2)cc1 |  | inconclusive: 25.1 µM [inhibitor, single point] |
| O=C1NC(=O)N(Cc2ccco2)C(=O)/C1=C\c1cccn1CCOc1ccc(Cl)cc1 |  | inconclusive: 25.9 µM [activator, partial curve] |
| C=CCn1c(O)c(C(CC)=Nc2ccc(N(C)C)cc2)c(=O)[nH]c1=O | inactive: -23.4% |  |
| CC1=C(/C=C/c2ccccc2)CCN(C)C1 |  | inconclusive: 23.1 µM [activator, single point] |
| CCCCn1c(O)c(C(CC)=NCCCN(C)C)c(=O)[nH]c1=O | inactive: 5.58% |  |
| CCC(=O)N1N=C(c2c(O)n(C)c(=O)n(C)c2=O)CC1c1ccccc1 (centres undefined) |  | inconclusive: 3.66 µM [inhibitor, partial curve] |
| CC(=O)Nc1cccc2c1Cc1ccccc1-2 |  | inconclusive: 14.6 µM [activator, partial curve] |
| O=c1c2ccccc2nc(/C=C/c2ccc(O)cc2)n1-c1ccccc1O |  | inconclusive: 32.6 µM [inhibitor, single point] |
| CC12CC[C@H]3[C@@H](CCC4(O)C[C@H](O)CCC34/C=N/NC(=O)c3ccccc3F)C1(O)CCC2C1=CC(=O)OC1 (some centres undefined) |  | inconclusive: 29.1 µM [inhibitor, single point] |
| CSc1ccc(C(=O)C2CCCN(Cc3cc4ccccc4[nH]3)C2)cc1 (centres undefined) |  | inconclusive: 18.3 µM [inhibitor, single point] |
| COc1ccc(OCC(=O)N2CCN(Cc3ccc4c(c3)OCO4)CC2)cc1 | inactive: -13.4% |  |
| CC1(C)C2([N+](=O)[O-])CN3CC1([N+](=O)[O-])CN(C2)C3c1ccccn1 (centres undefined) | inactive: 10.3% |  |
| CC(=O)Nc1ccccc1C(=O)OCc1ccccc1F |  | inconclusive: 18.3 µM [activator, single point] |
| CC(NCc1ccccc1Cl)C(O)c1ccccc1 (centres undefined) | inactive: 21.4% |  |
| Cc1ccc(OCCOc2cccc(C=C3C(=O)NC(=O)NC3=O)c2)cc1 |  | inconclusive: 0.82 µM [activator, partial curve, poor fit] |
| O=C(CC1CCCCC1)c1c(O)c2ccccc2oc1=O |  | inconclusive: 29.1 µM [inhibitor, single point] |
| N#Cc1ccccc1NC(=O)CN1CC=C(c2ccccc2)CC1 |  | inconclusive: 20.6 µM [activator, partial curve] |
| Cc1cc(OCCN2CC2)c2ccccc2n1 |  | inconclusive: 9.2 µM [inhibitor, partial curve] |
| C[C@H](CO)N1C[C@H](C)[C@@H](CN(C)Cc2ccc(-c3ccccc3)cc2)Oc2c(NC(=O)c3ccncc3)cccc2C1=O |  | inconclusive: 29.1 µM [inhibitor, single point] |
| CCOC(=O)C1=CC(=C2C(=O)N(CC)C(=S)N(CC)C2=O)c2ccccc2O1 | inactive: 2.07% |  |
| CCN(CC)C(=O)Cn1cc(C=C2C(=O)N(C)C(=O)N(C)C2=O)c2ccccc21 |  | inconclusive: 16.4 µM [activator, partial curve, poor fit] |
| CSCc1nnc2n1-c1ccc(Cl)cc1C(c1ccccc1)=NC2 |  | inconclusive: 32.6 µM [inhibitor, partial curve, poor fit] |
